Data: PubChem BioAssay AID493014 (National Center for Advancing Translational Sciences (NCATS), 2011)
About 170 (0.05%) of roughly 340,000 compounds were called active. The shares of active, inactive and inconclusive entries below differ from those in the screen. Calls come from the whole dose curve; as a rule, active = well fitted inhibition curve with a large enough effect in the signal ratio, with a control signal flat (not every such curve was filed as active); inconclusive = small, poorly fitted or top-dose-only effect, or effect the other way, or a change in a side signal; inactive = flat fitted curve, though single readings scatter; the % refers to the signal ratio. Potencies beside an inconclusive call are fits to weak or partial responses and may not hold up.
Potency is the fitted concentration of half-maximal effect.

Assay: qHTS Assay to Find Inhibitors of Chronic Active B-Cell Receptor Signaling;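 for activity change, negative = inhibition: plate controls were basal doxycycline-induced cells for no effect and cells given 10 µM MG132 for full effect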
Conditions: ABC-DLBCL IkBa-CBG/CBR reporter, luminescence ratio (green luciferase fused to IkBa over red control in TMD8 lymphoma cells), 4 h; activity change, negative = inhibition: at 46.1 µM (top of the series) unless noted
Procedure, shortened: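 Doxycycline induced both beetle luciferases in TMD8 lymphoma cells; IKK-driven degradation limits the IkappaBalpha-fused green signal, while red luminescence normalises for cell number and nonspecific effects. Compounds tested up to 46 uM, 4 hrs.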
With `CN(CC(=O)Nc1ccc(N2CCOCC2)cc1)C(=O)c1ccc(O)c(Cl)c1` the “activity change, negative = inhibition” value was inactive: 0.59%. In the case of `CCOc1ccc(CC(=O)OCc2cc(=O)n3cc(Br)ccc3n2)cc1`, the Potency is reported as inconclusive: 7.94 µM [rising, partial curve, poor fit]. In the case of `O=C(CCN1CCN(S(=O)(=O)c2cccc([N+](=O)[O-])c2)CC1)Nc1ccccc1F`, the Potency is reported as inconclusive: 35.5 µM [falling, single point]. For `O=C(CSc1nc2c(c(C(F)(F)F)n1)CCc1ccccc1-2)NCc1ccccc1`, the “activity change, negative = inhibition” value was inactive: 4.68%. With `COc1ccc(Br)cc1C(=O)Nc1ccc(C(=O)O)cc1` the Potency was inconclusive: 12.6 µM [falling, partial curve]. In the case of `COc1ccccc1/C=C/C(=O)NNC(=O)c1cccs1`, the Potency is reported as inconclusive: 12.6 µM [falling, partial curve]. In the case of `O=C(NCc1ccccc1)c1onc(CSc2nc3ccccc3[nH]2)c1C(=O)NCc1ccccc1`, the Potency is reported as inconclusive: 10 µM [rising, partial curve, poor fit]. In the case of `O=C(NC(=S)Nc1ccc2cn[nH]c2c1)c1ccccc1`, the Potency is reported as inconclusive: 22.4 µM [falling, partial curve]. In the case of `Cc1ccc(SC(CC(=O)c2ccc(C(C)(C)C)cc2)C(=O)O)cc1` (stereo not drawn), the activity change, negative = inhibition is reported as inconclusive: 5.66%. For `O=S(=O)(c1ccc(Cl)nc1)N1CCN(Cc2ccc3c(c2)OCO3)CC1`, the “activity change, negative = inhibition” value was inactive: -3.64%. With `Cc1[nH]nc2c1C(c1ccco1)C(C#N)=C(N)O2` (stereo not drawn) the activity change, negative = inhibition was inconclusive: -4.87%. For `CC(C)(C)c1nnc(NC(=O)CCS(=O)(=O)c2ccccc2)s1`, the Potency was inconclusive: 35.5 µM [falling, single point]. In the case of `Cc1ccc(S(=O)(=O)C2(C(=O)Nc3nccs3)CC2)cc1`, the “activity change, negative = inhibition” value is reported as inactive: 8.27%. With `CC(=O)Oc1ccc2ccccc2c1C(NC(=O)Cc1ccccc1)c1ccccc1Cl` (stereo not drawn) the activity change, negative = inhibition was inconclusive: 6.86%. In the case of `Cc1cccc(C(=O)N2CCN(Cc3ccc4c(c3)OCO4)CC2)c1`, the “activity change, negative = inhibition” value is reported as inactive: -9.16%. In the case of `Cc1cc(C)cc(N(CC(=O)Nc2ccc(Br)cc2)S(=O)(=O)c2c(C)[nH]c(=O)[nH]c2=O)c1`, the “activity change, negative = inhibition” value is reported as inactive: 14.8%. In the case of `NC(=O)c1ccc(N=Cc2ccc([N+](=O)[O-])s2)cc1`, the Potency is reported as inconclusive: 23.1 µM [falling, single point]. With `CC(C)OC(=O)Cn1c(=O)oc2ccccc21` the activity change, negative = inhibition was inconclusive: 9.64%. With `CSc1nc2c(ccc3ccccc32)o1` the activity change, negative = inhibition was inconclusive: 17.6%. With `Cc1nc(C(=O)Nc2cc(Cl)ccc2Cl)nn1-c1cc(OC(C)C)c(Cl)cc1Cl` the “activity change, negative = inhibition” value was inactive: -2.61%. For `COC(=O)[C@H]1[C@H]2C[C@@H]3c4[nH]c5cc(OC)ccc5c4CCN3C[C@H]2C[C@@H](OC(=O)c2cc(OC)c(OC)c(OC)c2)[C@@H]1OC`, the activity change, negative = inhibition was inconclusive: 5.38%. For `Cc1cc(C2C(C#N)=C(N)OC3=C2C(=O)CCC3)c(C)s1` (stereo not drawn), the activity change, negative = inhibition was inconclusive: -1.57%. In the case of `O=C(CC1SC(=O)NC1=O)Nc1ccc(Cl)cc1` (stereo not drawn), the activity change, negative = inhibition is reported as inconclusive: -18.5%. With `O=C(COc1ccccc1C(=O)Nc1ccccc1)NCCc1ccccc1` the activity change, negative = inhibition was inconclusive: 9.73%. In the case of `N/C(Cc1nc(-c2ccc(Br)cc2)cs1)=N\O`, the Potency is reported as inconclusive: 0.112 µM [falling, full curve, poor fit]. With `COc1cc(SC)ccc1C(=O)Nc1ccccn1` the Potency was inconclusive: 22.4 µM [falling, partial curve]. For `Cc1ccc(NC(=O)n2ncc3c(C)cccc32)c(C)c1`, the activity change, negative = inhibition was inconclusive: 10.4%. In the case of `Cc1cc(C)nc(-n2ncc3c2CC(c2ccccc2C)CC3=O)n1` (stereo not drawn), the activity change, negative = inhibition is reported as inconclusive: -6.69%. With `COc1ccc(S(=O)(=O)N/N=C(/C)c2ccncc2)cc1OC` the “activity change, negative = inhibition” value was inactive: 2.22%. With `Cc1nn(Cc2ccc(C(=O)NC3CCCCC3)o2)c(C)c1Br` the Potency was inconclusive: 32.6 µM [falling, single point]. For `Cc1cc(/C=N/NC(=O)C(O)(c2ccccc2)c2ccccc2)c(C)n1-c1ccc(C(=O)O)cc1`, the activity change, negative = inhibition was inconclusive: -6.76%. In the case of `Cc1cc(C)c(NC(=O)CSc2nc(=O)n(Cc3ccncc3)c3c2CCC3)c(C)c1`, the “activity change, negative = inhibition” value is reported as inactive: -0.331%. With `COc1cc(C2Nc3ccc4ncccc4c3C3=C2C(=O)CCC3)ccc1O` (stereo not drawn) the Potency was inconclusive: 22.4 µM [falling, single point]. With `COC(=O)C(CC(=O)c1ccc(Br)cc1)n1nc(C)cc1C` (stereo not drawn) the activity change, negative = inhibition was inconclusive: -11.2%. In the case of `Cc1ccc(NC(=O)N2CCCC2c2cccs2)cc1` (stereo not drawn), the activity change, negative = inhibition is reported as inconclusive: 4.68%. For `CC(=O)Nc1ccc(NC(=O)C(C)OC(=O)c2cccs2)cc1` (stereo not drawn), the activity change, negative = inhibition was inconclusive: 6.54%. In the case of `CSc1ncccc1C(=O)OCC(=O)Nc1cc(C(F)(F)F)ccc1N1CCOCC1`, the activity change, negative = inhibition is reported as inconclusive: -7.74%. With `O=C(CCCc1ccccc1)NCCc1ccccc1` the activity change, negative = inhibition was inconclusive: -0.173%. For `Cc1nn(-c2ccc(F)cc2)c(N)c1C1(O)C(=O)Nc2ccccc21` (stereo not drawn), the “activity change, negative = inhibition” value was inactive: 2.84%. In the case of `O=C(CN(C1CCCCC1)C1CCCCC1)N1CCc2ccccc2C1`, the Potency is reported as inconclusive: 29.1 µM [rising, single point]. In the case of `NC(=O)CC(NC(=O)Cc1ccc(Br)cc1)c1ccc(NCCOc2ccccc2)c([N+](=O)[O-])c1` (stereo not drawn), the activity change, negative = inhibition is reported as inconclusive: 4.96%. For `CC(=O)c1ccc(NC(=O)CN2CCCCCC2)cc1`, the “activity change, negative = inhibition” value was inactive: 10.3%. In the case of `O=C(NCCCN1CCCC1=O)Nc1ccc([N+](=O)[O-])cc1`, the activity change, negative = inhibition is reported as inconclusive: 4.54%. For `c1ccc(CN2CCC(=NNc3nc4ccccc4[nH]3)CC2)cc1`, the “activity change, negative = inhibition” value was inactive: -19.6%. For `COc1cc(C(C)=O)ccc1OCC(O)CN1CCN(c2cc(C)cc(C)c2)CC1` (stereo not drawn), the “activity change, negative = inhibition” value was inactive: -1.96%. For `Cc1cc2ncn(/N=C/c3cc(Br)ccc3O)c2cc1C`, the activity change, negative = inhibition was inconclusive: 1.47%. In the case of `COC(=O)Cc1c[nH]c2cccc(OCC(O)CN(Cc3ccc([N+](=O)[O-])cc3)C(C)(C)C)c12` (stereo not drawn), the activity change, negative = inhibition is reported as inconclusive: 6.32%. With `NC(=S)N/N=C/c1coc2ccc(Br)cc2c1=O` the Potency was inconclusive: 3.98 µM [rising, full curve]. With `N#C/C(=C(/O)c1ccc(-c2cccc([N+](=O)[O-])c2)o1)c1nc2ccccc2s1` the Potency was inconclusive: 11.2 µM [falling, partial curve]. For `OC(COCCOc1ccc(Br)cc1)CN1CCN(Cc2ccccc2)CC1` (stereo not drawn), the “activity change, negative = inhibition” value was inactive: -11.3%. For `COc1cccc(C(=O)Nc2ccc3nc4n(c(=O)c3c2)CCCC4)c1`, the Potency was inconclusive: 35.5 µM [falling, single point]. With `Cc1ccc2cccc(SCC(=O)N3CCOCC3)c2n1` the Potency was inconclusive: 29.1 µM [falling, single point]. In the case of `CC(Sc1ccc(S(=O)(=O)N(C)C)cn1)C(=O)NC1CCCC1` (stereo not drawn), the “activity change, negative = inhibition” value is reported as inactive: -0.21%. In the case of `CC(=O)O[C@H]1CC(C)(C)C(=C=C/C(C)=C/C=C/C(C)=C/C=C/C=C(C)/C=C/C=C(\C)C(=O)C[C@@]23O[C@]2(C)C[C@@H](O)CC3(C)C)[C@](C)(O)C1`, the activity change, negative = inhibition is reported as inconclusive: -5.72%. In the case of `CCC(=O)c1ccc(OCc2ccccc2)c(OC)c1`, the Potency is reported as inconclusive: 25.9 µM [falling, partial curve, poor fit]. In the case of `Cn1c(CCN2CCCC2)nc2cc(NS(=O)(=O)c3ccccc3)ccc21`, the Potency is reported as inconclusive: 35.5 µM [falling, single point]. In the case of `CCCCN(C(=O)c1ccc2c(c1)NC(=O)CS2)c1ccccc1`, the activity change, negative = inhibition is reported as inconclusive: 11%. For `CCc1ccc(C(=O)c2oc3nc(C)cc(C)c3c2N)cc1`, the activity change, negative = inhibition was inconclusive: 10.8%. With `Cc1cccc(Nc2c(-c3ccc(N4CCOCC4)cc3)nc3ncccn23)c1` the activity change, negative = inhibition was inconclusive: -1.06%. For `CCN1CCN(c2ccccc2NC(=O)C(C)Oc2ccc(C(C)=O)cc2)CC1` (stereo not drawn), the “activity change, negative = inhibition” value was inactive: -14.4%. In the case of `O=C(CSc1nc(=O)n(Cc2ccccn2)c2c1CCC2)Nc1ccc(F)cc1F`, the activity change, negative = inhibition is reported as inconclusive: 0.228%. With `COc1cc(C)ccc1OCC(=O)Nc1ccccc1N1CCOCC1` the activity change, negative = inhibition was inconclusive: 0.486%. With `Cc1cc(-c2cccs2)n[nH]1` the activity change, negative = inhibition was inconclusive: 2.91%. In the case of `CCN(CC)S(=O)(=O)c1cccc(-n2c(O)c(C=Nc3ccccc3C(=O)O)c3ccccc3c2=O)c1`, the activity change, negative = inhibition is reported as inconclusive: -3.13%. In the case of `O=C(O)c1cccc(N/N=C/c2ccc(-c3ccccc3)cc2)c1`, the Potency is reported as inconclusive: 12.6 µM [falling, partial curve, poor fit]. For `COc1ccc(OC)c(C2C(C(=O)c3ccc(C)o3)=C(O)C(=O)N2c2cc(C)on2)c1` (stereo not drawn), the “activity change, negative = inhibition” value was inactive: 1.76%. For `CC(=O)NC1=NC(=O)/C(=C/c2cc(C)n(-c3cccc(C(=O)O)c3)c2C)S1`, the “activity change, negative = inhibition” value was inactive: -1.46%. For `COc1cccc(NC(=O)CN(C)C(=O)CCCc2c[nH]c3ccccc23)c1`, the Potency was inconclusive: 14.6 µM [falling, partial curve, poor fit]. In the case of `CC(C)CCNC(=O)COc1cccc2c1OC(C)(C)C2`, the activity change, negative = inhibition is reported as inconclusive: 6.65%. With `O=C(NNc1nc2c(F)cccc2s1)c1cc(=O)c2ccccc2o1` the Potency was inconclusive: 17.8 µM [falling, partial curve]. For `Cc1ccc(NC(=O)N2CCc3ccccc32)cc1`, the Potency was inconclusive: 29.1 µM [falling, partial curve]. For `CCOC(=O)c1cc2sc(C)cc2n1CC(=O)NCCc1ccccc1`, the activity change, negative = inhibition was inconclusive: 3.82%. With `COCCNC(=S)N/N=C(\C)c1cccc(OC)c1` the Potency was inconclusive: 35.5 µM [cytotoxic, single point]. With `CCC1(C)Cc2c(sc3nnn(CC(=O)Nc4cccc5ccccc45)c(=O)c23)CO1` (stereo not drawn) the activity change, negative = inhibition was inconclusive: -5.54%. In the case of `CC(=O)NS(=O)(=O)c1cccnc1Nc1cccc(Cl)c1`, the activity change, negative = inhibition is reported as inconclusive: 9.01%. For `COC(=O)c1ccc(N/N=C/c2cc([N+](=O)[O-])cc(OC)c2O)cc1`, the Potency was inconclusive: 35.5 µM [rising, single point]. For `CCOC(=O)C1CCN(C(=O)C(CCSC)NC(=O)c2ccccc2OC)CC1` (stereo not drawn), the activity change, negative = inhibition was inconclusive: 0.106%. With `Oc1ccc(Br)cc1C1Nc2ccccc2S1` (stereo not drawn) the activity change, negative = inhibition was inconclusive: 3.73%.
